# Experimental data: article PMC7819943, “Rice protein-binding microarrays: a tool to detect cis-acting elements near promoter regions in rice”
# By UniProt entry, the sequences of proteins in these tests, tags left out.
# UniProt Q0JBA9, entry or part of it: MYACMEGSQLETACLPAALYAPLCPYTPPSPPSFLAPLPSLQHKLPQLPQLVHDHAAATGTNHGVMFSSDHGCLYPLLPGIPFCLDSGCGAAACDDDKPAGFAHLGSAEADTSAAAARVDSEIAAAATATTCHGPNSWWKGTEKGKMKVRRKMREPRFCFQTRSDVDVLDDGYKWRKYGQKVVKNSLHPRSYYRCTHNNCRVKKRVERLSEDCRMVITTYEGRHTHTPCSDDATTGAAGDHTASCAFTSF
# This is one part of the list.
# Molecular target: OsWRKY34 (Oryza sativa, UniProt Q0JBA9 1-250)
# Test: protein-binding microarray (RPBM); PBS, 2% BSA, 51.3 ng/ul salmon testes DNA, 50 uM zinc acetate, 200 nM TF, 25 C, 1 h; high values mean tight binding
# Settings: protein: recombinant; tags: N-terminal polyhistidine and DsRed monomer fusion (pET32a); label: CyDye5-dUTP incorporated in the synthesized complementary strand; 3' TTTTT single-stranded linker to array surface; dsDNA, one strand shown
# Outline: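 Binding signal is reported as fluorescence intensity per feature (arbitrary units) from an Axon 4000B scanner. Incubation used 200 nM of each Ni–NTA-purified, N-terminally polyhistidine- and DsRed-fused transcription factor from E. coli BL21-CodonPlus on a double-stranded custom Agilent array for 1 h at 25 °C, with 50 µM zinc acetate in the buffer, followed by washing.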
row,Sequence,binding signal
1,ACCGTGGAGGGAGGGAGGGGCATGGATCTGCTGCGGTGCCCGGAGTCACCTAGTGCAG,10300 fluorescence intensity (a.u.)
2,TGGAAGTTGTAGGCCTGTTGAATGTTGATGTCTTATTGTCCGGAGTCACCTAGTGCAG,8840 fluorescence intensity (a.u.)
3,TGGATAGTTTTTGCATTAATACGTTCTAATGTACGTCTTACGGAGTCACCTAGTGCAG,8370 fluorescence intensity (a.u.)
4,CGTGACCTCCGCCTCCGCCTCCGCCGTCCGCCGCCATCCTCGGAGTCACCTAGTGCAG,9320 fluorescence intensity (a.u.)
5,GCGCGCTGCCTCGCCCTCGCTATATATTCCGCCCATATTCCGGAGTCACCTAGTGCAG,9630 fluorescence intensity (a.u.)
6,CGTCCGATTGCCTCCGTTCCACTTCCAGTAATTCCATTAACGGAGTCACCTAGTGCAG,10900 fluorescence intensity (a.u.)
7,GCCTCCTACACTTACCGTCACCGACCGCGAAAAAATTCCCCGGAGTCACCTAGTGCAG,9330 fluorescence intensity (a.u.)
8,AAATACTCCTACATCTTTATTTTCTTTTTTGCTAACACAACGGAGTCACCTAGTGCAG,8650 fluorescence intensity (a.u.)
9,GAGTGGATAGGGAGGTAGTAGTTTGCCCGTCTAATTTTTGCGGAGTCACCTAGTGCAG,8260 fluorescence intensity (a.u.)
10,CGTTGATCTAGTCTCATATGTCAGTGAACTAACATTTTTTCGGAGTCACCTAGTGCAG,9870 fluorescence intensity (a.u.)
11,GATGACAAAAGCGGGCACCTCCTTATTTTTACATACGGGTCGGAGTCACCTAGTGCAG,8480 fluorescence intensity (a.u.)
12,CCTTAAATTTAGAGTTGATTTTGGGTTTTTTTATCGTAAACGGAGTCACCTAGTGCAG,9770 fluorescence intensity (a.u.)
13,CATCATCATATACTCCGCTAATGTCTGTACCAAATCCTAACGGAGTCACCTAGTGCAG,8490 fluorescence intensity (a.u.)
14,TAAATTTCCCCGCTATAATTTGTCCTAATTAACCCGTCAGCGGAGTCACCTAGTGCAG,8540 fluorescence intensity (a.u.)
15,ATGATGTCGCTGTCTGTCGGTTCCCTCTGGGCCCCACCCGCGGAGTCACCTAGTGCAG,8740 fluorescence intensity (a.u.)
16,TCTAGGTACAGAATACGCCACATTTGTTACATCTCTCTAGCGGAGTCACCTAGTGCAG,8040 fluorescence intensity (a.u.)
17,TATCGGTCTCTCTTTTTTTTTATTTGACACCGTCATTACCCGGAGTCACCTAGTGCAG,8120 fluorescence intensity (a.u.)
18,CAGTTTCATCCCATTCATGTTCATGTTTTTGTTTTCTTTTCGGAGTCACCTAGTGCAG,13400 fluorescence intensity (a.u.)
19,ATATTTTGCTTATACTGTTTGACCACTCGTCTTATTAAAACGGAGTCACCTAGTGCAG,8790 fluorescence intensity (a.u.)
20,ACCTTATCTACTCGCGTGGGCCCCGCCAGCTCGACCGACTCGGAGTCACCTAGTGCAG,8830 fluorescence intensity (a.u.)
21,GCCACCTCACCATCGTACCATCACTACCCAGTCATCACGACGGAGTCACCTAGTGCAG,10100 fluorescence intensity (a.u.)

row,Sequence,binding signal
1,CTCCATCACTGCGCCACATGCAGCCTGCCGTTTCGAAAACCGGAGTCACCTAGTGCAG,10200 fluorescence intensity (a.u.)
2,CGCAACTTTAAAATAGGTCAAATGTACAGTTGACCCAAAACGGAGTCACCTAGTGCAG,13400 fluorescence intensity (a.u.)
3,AGGTTTTCTCCCACTTTGGTTCGACAACATGTTCCTCAATCGGAGTCACCTAGTGCAG,10300 fluorescence intensity (a.u.)
4,CAACACATCTCTTGCATTTTTTTTTCTTTGCATTCTCATTCGGAGTCACCTAGTGCAG,8200 fluorescence intensity (a.u.)
5,GTATTTGTTGTCATCGTTTTCTTCGTGTCCTTTCATGATCCGGAGTCACCTAGTGCAG,10300 fluorescence intensity (a.u.)
6,TATTATAACTTTATAAGTCGTTTGACTTTTTTTTCCAGTTCGGAGTCACCTAGTGCAG,12800 fluorescence intensity (a.u.)
7,GTCGTCTCTCGCCCACTTCGTCGCTCGCTCGCTCATTAATCGGAGTCACCTAGTGCAG,12900 fluorescence intensity (a.u.)
8,GATGCAACCGCTCTACTTCCCAACCATCCGACACCACATTCGGAGTCACCTAGTGCAG,8810 fluorescence intensity (a.u.)
9,GAGATCACTTTCTTGGTTGAGGTGGTGGCTTTGATCTGACCGGAGTCACCTAGTGCAG,8210 fluorescence intensity (a.u.)
10,AGAGAGGGAAGGGAGGGAGGGAGGGAGGAGGGAGAGATCTCGGAGTCACCTAGTGCAG,11700 fluorescence intensity (a.u.)
11,GGCTATCGGTGGGTGGGTGGGGTGTACTACTCCCCTATAACGGAGTCACCTAGTGCAG,22200 fluorescence intensity (a.u.)
12,CGCTGGGTCACCAACCTTCGCTGCCACATCGTCTCTCCTCCGGAGTCACCTAGTGCAG,8780 fluorescence intensity (a.u.)
13,CATCCCTATTCTTTCGACCGTGGCATATAATATGTCTATTCGGAGTCACCTAGTGCAG,9920 fluorescence intensity (a.u.)
14,AGCTCCACCTCCATGGCCGCAAAGCACCATCCTCTCGCATCGGAGTCACCTAGTGCAG,8850 fluorescence intensity (a.u.)
15,GTGGTAACTTTGTTAATCTCAAGATACGTTGACTTAGTCTCGGAGTCACCTAGTGCAG,9280 fluorescence intensity (a.u.)
16,CATCTACGTGCTCTCTTTGGTTGGGGTGTTCTTGCTGCTACGGAGTCACCTAGTGCAG,17700 fluorescence intensity (a.u.)
17,CCTTCACTTCTTCCTCATTGCTCTTTGTTTGTGGAGCAATCGGAGTCACCTAGTGCAG,9510 fluorescence intensity (a.u.)
18,CCTCTTGCCACTACTATTTCTAGTAGTCGTGTATCATCATCGGAGTCACCTAGTGCAG,8180 fluorescence intensity (a.u.)
19,TACATCCGTTTCCGTTTCGTTCTGTTCTGTTCTGTTGTTTCGGAGTCACCTAGTGCAG,29200 fluorescence intensity (a.u.)
20,AGATGGTTGGGAATGGCTTAGGGAGGGGCTGCTAATTCGGCGGAGTCACCTAGTGCAG,12400 fluorescence intensity (a.u.)
21,CCGCATCCGTATCCGCACGTCATCCGCATCCGTTTAAAAACGGAGTCACCTAGTGCAG,10400 fluorescence intensity (a.u.)

# Exported tab-delimited: entries from further up.
row	Sequence	binding signal
2	CGCAACTTTAAAATAGGTCAAATGTACAGTTGACCCAAAACGGAGTCACCTAGTGCAG	13400 fluorescence intensity (a.u.)
4	CAACACATCTCTTGCATTTTTTTTTCTTTGCATTCTCATTCGGAGTCACCTAGTGCAG	8200 fluorescence intensity (a.u.)
6	TATTATAACTTTATAAGTCGTTTGACTTTTTTTTCCAGTTCGGAGTCACCTAGTGCAG	12800 fluorescence intensity (a.u.)
7	GTCGTCTCTCGCCCACTTCGTCGCTCGCTCGCTCATTAATCGGAGTCACCTAGTGCAG	12900 fluorescence intensity (a.u.)
8	GATGCAACCGCTCTACTTCCCAACCATCCGACACCACATTCGGAGTCACCTAGTGCAG	8810 fluorescence intensity (a.u.)
10	AGAGAGGGAAGGGAGGGAGGGAGGGAGGAGGGAGAGATCTCGGAGTCACCTAGTGCAG	11700 fluorescence intensity (a.u.)
11	GGCTATCGGTGGGTGGGTGGGGTGTACTACTCCCCTATAACGGAGTCACCTAGTGCAG	22200 fluorescence intensity (a.u.)
12	CGCTGGGTCACCAACCTTCGCTGCCACATCGTCTCTCCTCCGGAGTCACCTAGTGCAG	8780 fluorescence intensity (a.u.)
17	CCTTCACTTCTTCCTCATTGCTCTTTGTTTGTGGAGCAATCGGAGTCACCTAGTGCAG	9510 fluorescence intensity (a.u.)
18	CCTCTTGCCACTACTATTTCTAGTAGTCGTGTATCATCATCGGAGTCACCTAGTGCAG	8180 fluorescence intensity (a.u.)
19	TACATCCGTTTCCGTTTCGTTCTGTTCTGTTCTGTTGTTTCGGAGTCACCTAGTGCAG	29200 fluorescence intensity (a.u.)
20	AGATGGTTGGGAATGGCTTAGGGAGGGGCTGCTAATTCGGCGGAGTCACCTAGTGCAG	12400 fluorescence intensity (a.u.)

# Next records

row,Sequence,binding signal
1,TACACTAATCTATCTACTGGAGTACTTCAGCAACATTTTCCGGAGTCACCTAGTGCAG,9640 fluorescence intensity (a.u.)
2,CGAAATCTCCGAACCATACCGCCATAATTCGCACGCACACCGGAGTCACCTAGTGCAG,8030 fluorescence intensity (a.u.)
3,CCACAATTTTGACATGCCACATTTTCTACTCTTTTGGTCCCGGAGTCACCTAGTGCAG,8660 fluorescence intensity (a.u.)
4,TGTCGTGGACTTGACTTTTTTTTTTAACGTGTGATGACTCCGGAGTCACCTAGTGCAG,10800 fluorescence intensity (a.u.)
5,CCGCCGTCGCCGGCTCGCTCGCTCGCTGCCCATATATACGCGGAGTCACCTAGTGCAG,9960 fluorescence intensity (a.u.)
6,CAGTTTCCATTCTTGTGATTAATATTATCTTTACTTCATTCGGAGTCACCTAGTGCAG,9390 fluorescence intensity (a.u.)
7,ATATTTTAATGAATGACACTGTTGACTTTTTGACAAACGTCGGAGTCACCTAGTGCAG,13300 fluorescence intensity (a.u.)
8,GGGCTGGTGGTGTTCAAGTCGGCGCTGTCGGACCCCTCCGCGGAGTCACCTAGTGCAG,9780 fluorescence intensity (a.u.)
9,TCCCCAAGCGCATCCAGGCCGCCCTCGTCTCCAAGGACGACGGAGTCACCTAGTGCAG,8260 fluorescence intensity (a.u.)
10,CCAAGGTGCGCCACCGCCGCCGCCTGGCTTTGCAGTTCCTCGGAGTCACCTAGTGCAG,8700 fluorescence intensity (a.u.)
11,GCCTATTGATACCCCGTTCTTTCCTATGTTACCAGAGATACGGAGTCACCTAGTGCAG,9600 fluorescence intensity (a.u.)
12,TCCGACACATCTGCCATTGGATGCTCCCTCTTTATCATGTCGGAGTCACCTAGTGCAG,8760 fluorescence intensity (a.u.)
13,TTATTTTTTCCCCACTTTGTTCCGTTTGTCTTCTACCTCCCGGAGTCACCTAGTGCAG,8370 fluorescence intensity (a.u.)
14,TCGGCAGCTAGCTACTTATGTAGCCACTATAGTCCTAGGTCGGAGTCACCTAGTGCAG,9300 fluorescence intensity (a.u.)
15,TTACATTGCACTTGTCGTATGCTATCTAGAATTACCATACCGGAGTCACCTAGTGCAG,8410 fluorescence intensity (a.u.)
16,TATCAAACTTTATTATCCCTTGCCGCTTCATTTTCCATCCCGGAGTCACCTAGTGCAG,10300 fluorescence intensity (a.u.)
17,ATCCAATCGATCCCGCGCTCTTATGTGTACCTTCATGTTCCGGAGTCACCTAGTGCAG,8670 fluorescence intensity (a.u.)
18,GCTTTTCTTTTAGTCCCATATATCTAGCAATTACACACTTCGGAGTCACCTAGTGCAG,8230 fluorescence intensity (a.u.)
19,CCCTCGCTCCGCCGTCTCCCCTCGCCGCCGTTCCCCTTCCCGGAGTCACCTAGTGCAG,8710 fluorescence intensity (a.u.)
20,CTCCCACCTCGCGCCATCGGATTCCACCTTCCCAGGTCTCCGGAGTCACCTAGTGCAG,8260 fluorescence intensity (a.u.)
21,AGACATGTGCCATCTTTTCTGCTCTCCCGACTTGTCTAAGCGGAGTCACCTAGTGCAG,8520 fluorescence intensity (a.u.)

row,Sequence,binding signal
1,TGTTCTGCAAGTTCATAGTGCTTTTGGTTGTCGTTGTAGTCGGAGTCACCTAGTGCAG,9910 fluorescence intensity (a.u.)
2,ACTTTTCCGTCGCATCGTTCCAATTTCAACCAAACTTTCACGGAGTCACCTAGTGCAG,10700 fluorescence intensity (a.u.)
3,GCTCTGTGCCGCACTCGCCGATTCTGCCCGCCTATTTTTTCGGAGTCACCTAGTGCAG,11400 fluorescence intensity (a.u.)
4,CTCTCTCGTCTAATTTATACGGTCGAATCAAACGGTAATTCGGAGTCACCTAGTGCAG,8270 fluorescence intensity (a.u.)
5,CCCTCTCTCGCCTCGCCTCCTCGTCGTCTTCCTCGCCAACCGGAGTCACCTAGTGCAG,8250 fluorescence intensity (a.u.)
6,TTCGCACCACCTCGCCCAGCCGCCCACGCGCGCGGCTCTCCGGAGTCACCTAGTGCAG,8450 fluorescence intensity (a.u.)
7,TTCTTTGTGGCCTTCTCGTCGCCATTCTTGGTTGGATTAGCGGAGTCACCTAGTGCAG,8050 fluorescence intensity (a.u.)
8,GGGGTCGAAATATCCGGTTTTGTGGTTTATGGTCGTGGATCGGAGTCACCTAGTGCAG,13000 fluorescence intensity (a.u.)
9,CTCAGCGCCCGCATCCACCGCATCCATCGTATCCACCGCCCGGAGTCACCTAGTGCAG,9980 fluorescence intensity (a.u.)
10,GGAGTAGTATTTTGAGTCGCCGTCACCGTCGGCTCCCTCACGGAGTCACCTAGTGCAG,9080 fluorescence intensity (a.u.)
11,GTTGTATGGGCATTGTTAAATTTTTTAAGAAATTTTTATACGGAGTCACCTAGTGCAG,9100 fluorescence intensity (a.u.)
12,TCTTCCCTTCTCTCTCCAATCCAGCTCGTGGCAATCCGACCGGAGTCACCTAGTGCAG,9010 fluorescence intensity (a.u.)
13,CACACTCACACAGTTCACACTCATATCATATCAACAACACCGGAGTCACCTAGTGCAG,8300 fluorescence intensity (a.u.)
14,TCTCCTGACCTTTGCTTGTCTGTCCCTTCGCTTCAACTTCCGGAGTCACCTAGTGCAG,13700 fluorescence intensity (a.u.)
15,TTTTTTTTTACTGACATGTCGGTCCCATGAGTGCCATGTACGGAGTCACCTAGTGCAG,8130 fluorescence intensity (a.u.)
16,TCGTTTTGACTTTTTCGTAGTCGAAACTTTTTAAAGTTTGCGGAGTCACCTAGTGCAG,9100 fluorescence intensity (a.u.)
17,CCCGCTACGCACAGACTTGTCTCTTTTATCCATCGTATTACGGAGTCACCTAGTGCAG,8480 fluorescence intensity (a.u.)
18,CTCATGCTTTAGAGGCCTAGTTTTAATGACTATGTGTTTTCGGAGTCACCTAGTGCAG,11500 fluorescence intensity (a.u.)
19,TCAGCCTTTTTTTATTTTTCTTATTGACCACTTCAGAATCCGGAGTCACCTAGTGCAG,9100 fluorescence intensity (a.u.)
20,CCGAGCCGAGGCCGGAATTTCCTTTTTGGTGCGACGACGACGGAGTCACCTAGTGCAG,11000 fluorescence intensity (a.u.)
21,AACAGTGTTCTACGGTTCTACCGAACCCATTCATCACCTTCGGAGTCACCTAGTGCAG,9160 fluorescence intensity (a.u.)
